The source of these data is US5328840A (The Research Foundation of the State University of New York, priority 1991, dated 1994).

Data set [1] in a line: general procedure: Boc solid-phase peptide synthesis; 4-methylbenzhydrylamine (4-MBHA) resin. Conditions: whole synthesis, 220 nm.
Data set [2] concerns erythrocytes. The experiment in a line: Laser diffraction ektacytometry (deformability index).

Turning to Ac-CGGRGDF-NH2, the “crude HPLC purity” value in data set [1] is 45-57%.
Regarding “thrombo-erythrocytes: erythrocytes covalently conjugated through Mal-Sac-HNSA to the peptide acetyl-Cys-Gly-Gly-Arg-Gly-Asp-Phe-amide (Ac-CGGRGDF-NH2) (N-acetyl, C-amide, conjugated to erythrocytes via Mal-Sac-HNSA; printed: Cys-Gly-Gly-Arg-Gly-Asp-Phe-)”, in data set [2], the “deformability properties (laser ektacytometry) compared with control and untreated erythrocytes” value is on record as “same deformability properties”. In addition, in data set [2] (normal range 0.6±0.02 from more than 200 individuals), the plateau deformability index result is “within the normal range”.
